Measured values from PMC4814116, “Design of Novel Relaxase Substrates Based on Rolling Circle Replicases for Bioconjugation to DNA Nanostructures”.
For some assays here: A negative result means that nothing was seen under these conditions. Where a protein sequence is shown, tags need not be part of it. For some assays here: The exact form of at least one protein or probe is not confirmed. For some assays here: At least one verdict was read from the data and is not stated in words by the source. For some assays here: The direction of at least one scale is not stated here.

What was measured:
[1] = biological target: T1, TraIR (N-terminal domain of TraI) (plasmid RP4) (UniProt Q00191); experiment: SDS-PAGE covalent complex; details: 5 mM Mg2+, no cleavage; Covalent complex: 15 uM oligo, 37 C 1 h, 5 mM MgCl2, 15 uM EDTA; TrwCR 10 mM Tris pH 7.6, 375 mM NaCl; MobAR 25 mM Tris pH 8.0, 225 mM NaCl; TraIR 10 mM Tris pH 7.6; recombinant protein; folded or branched DNA
T1 sequence (looked up, limits assumed): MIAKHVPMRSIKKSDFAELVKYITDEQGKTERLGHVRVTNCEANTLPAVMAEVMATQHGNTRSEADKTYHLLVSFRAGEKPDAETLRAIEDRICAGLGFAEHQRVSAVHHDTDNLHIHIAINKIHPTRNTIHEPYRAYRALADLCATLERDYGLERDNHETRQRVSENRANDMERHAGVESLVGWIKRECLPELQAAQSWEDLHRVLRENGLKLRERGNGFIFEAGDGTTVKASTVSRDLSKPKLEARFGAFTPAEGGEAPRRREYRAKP

[2] = biological target: T2, TrwCR (N-terminal relaxase domain of TrwC) (UniProt Q47673); experiment: gel filtration; details: EDTA, sole protein-DNA band, Covalent complex: 15 uM oligo, 37 C 1 h, 5 mM MgCl2, 15 uM EDTA, MobAR 25 mM Tris pH 8.0, 225 mM NaCl, TraIR 10 mM Tris pH 7.6, recombinant protein, residues 1-293
T2 sequence (looked up): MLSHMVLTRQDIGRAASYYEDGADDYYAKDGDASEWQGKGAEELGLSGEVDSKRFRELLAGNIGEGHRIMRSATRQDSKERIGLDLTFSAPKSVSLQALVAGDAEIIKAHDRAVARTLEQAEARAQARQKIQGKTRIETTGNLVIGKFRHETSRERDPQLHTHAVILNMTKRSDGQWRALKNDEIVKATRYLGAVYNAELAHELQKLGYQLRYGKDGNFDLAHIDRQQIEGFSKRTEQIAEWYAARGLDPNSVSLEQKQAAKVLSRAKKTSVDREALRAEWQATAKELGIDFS

[3] = biological target: T2, TrwCR (N-terminal relaxase domain of TrwC); experiment: SDS-PAGE covalent complex; details: 5 mM Mg2+, Covalent complex: 15 uM oligo, 37 C 1 h, 5 mM MgCl2, 15 uM EDTA, TrwCR 10 mM Tris pH 7.6, 375 mM NaCl, MobAR 25 mM Tris pH 8.0, 225 mM NaCl, TraIR 10 mM Tris pH 7.6, recombinant protein, residues 1-293, folded or branched …
[4] = biological target: T2, TrwCR (N-terminal relaxase domain of TrwC); experiment: EMSA; details: 1 mM EDTA, single shifted band, EC50 same as H(14+14), value not given, EMSA: 50 nM oligo, 10 mM Tris pH 7.6, 100 mM NaCl, RT 30 min, recombinant protein, residues 1-293, label: IRDye800, folded or branched DNA
[5] = TrwCR 10 mM Tris pH 7.6, 375 mM NaCl, folded or branched …

CTTCACCTATCCTGCCCGGCTGGTGAAG [RP4 HP(14+14)]
binding result [1]: no binding

CTTCACCTATCCTGCCCGGCTGTACCTACGTGAAG [RP4 HP(14+21)]
binding result [1]: no binding

CCCAATGCGCGGTGCGTATTGTCTATAGCCCAGATCGCACCGCGCATTGGG [R388 H(24+27)]
binding result [2, 5]: binds
binding signal (% covalent complex) ([3]; not replicated): 12

CGCACCGAAAGGTGCGTATTGTCTATATTGTCT [R388 W(25+8), IRDye-labelled]
binding result [4]: binds

AACCGGCTAGGTGCGTATTGTCTATAGCCCAGATCGCACCTAGCCGGTT [R388 H(23+26)]
binding signal (% covalent complex) ([3]; not replicated): 13.5

CCCAATGCGCGGTGCGTATTGTCTATAGCCCACGCACCGCGCATTGGG [R388 H(24+24)]
binding result [2, 5]: binds
binding signal (% covalent complex) ([3]; not replicated): 12.4

ATTGTCTATAGCCCAGATCGCACCGAAAGGTGCG [R388 R(7+27)]
binding signal (% covalent complex) [3]: 18.3

CCCAATGCGCGGTGCGTATTGTCTATAGCCCAGATCCACCGCACCGCGCATTGGG [R388 H(24+31)]
binding result ([2]; no cleavage value in Table 1, TrwCR 10 mM Tris pH 7.6, 375 mM …, folded or branched DNA): binds

AACCGGCTAGGTGCGTATTGTCTATAGCCCACGCACCTAGCCGGTT [R388 H(23+23)]
binding signal (% covalent complex) ([3]; not replicated): 11.2
